Whole data set: some 33,000 sequences, median “E-score (-0.5 to 0.5)” near -0.0059, cut for the highest 2% near 0.26. Some of the results follow.

This assay addresses T1, Cin5 (UniProt P40917).
T1 sequence: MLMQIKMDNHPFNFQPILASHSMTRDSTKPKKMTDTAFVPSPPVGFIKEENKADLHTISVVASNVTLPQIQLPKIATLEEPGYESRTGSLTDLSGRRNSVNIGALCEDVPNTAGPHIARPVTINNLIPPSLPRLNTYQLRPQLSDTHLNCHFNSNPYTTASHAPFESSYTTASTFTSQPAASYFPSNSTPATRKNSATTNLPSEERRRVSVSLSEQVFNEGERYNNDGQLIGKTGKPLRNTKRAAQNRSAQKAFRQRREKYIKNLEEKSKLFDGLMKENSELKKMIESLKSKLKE
Put plainly: PBM E-score (8-mer binding enrichment) (E-score (-0.5 to 0.5)); higher = stronger / more preferred TF binding. As to conditions: protein concentration: 100 nM; construct: GST-full length. The method in brief: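 Masliner-normalised scans of fluorescent anti-GST signal were the basis for scoring. That signal came from GST-tagged yeast transcription factors applied at about 100-200 nM to double-stranded universal all-10-mer Agilent arrays on fresh or once-stripped slides. Each ungapped eight-base word, pooled with its reverse complement, received an E-score from the Universal PBM Analysis Suite.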
As for ATCCGGTA, the “PBM E-score” value was 0.096.
The same measure for AGAATTTC: -0.117.
The same measure for ATGTACAG: -0.149; for CAATTCGA: -0.159; for GCTTATCC: 0.236.
For CGACGTAG, the “PBM E-score” value is -0.242.
In the case of CCAGGTAG, the “PBM E-score” value was -0.131.
In the case of CAGTCCAC, the “PBM E-score” value was -0.147.
In the case of ATCAGGAT, the “PBM E-score” value was determined as 0.0485.
For the sequence CTTCAAAG, the “PBM E-score” value was -0.213.
The same measure for ACCCTAGA: 0.0475.
Turning to ACTAAAGA, the “PBM E-score” value is -0.0785.
Take CAGTTTTA: the “PBM E-score” value came out at 0.0232.
As for AGTTACCC, the “PBM E-score” value is -0.085.
The same measure for GCCAATGA: -0.126; for GACGCTGC: -0.177; for CGTGAGGA: -0.08.
ACTCAACA: the “PBM E-score” value worked out at 0.168.
As for GGACCGCA, the “PBM E-score” value was -0.174.
As to AGACGCAG, the “PBM E-score” value was -0.0878.
The same measure for CTTACCGC: 0.0457; for CTACCAAC: -0.03.
The same measure for TCGCTGAA: 0.205; for AACGTGCG: -0.0964; for ATAAGTGG: 0.0505.
Take CGCACCAC: the “PBM E-score” value is -0.0513.
The same measure for CTACTTCA: -0.0153.
As for GCGGACTA, the “PBM E-score” value was -0.00614.
As to CGAATTAG, the “PBM E-score” value was found to be 0.171.
The result for CACCTTCG reads -0.164.
For GGGTATAC, the “PBM E-score” value stood at 0.0462.
Consider ATGTAGGC, for which the “PBM E-score” value is -0.0343.
As to ATACATTG, the “PBM E-score” value came to 0.162.
With AGGCAACA, the “PBM E-score” value was -0.126.
As for TCGCACAA, the “PBM E-score” value is -0.00928.
The result for AGGCGGAA reads -0.0282; that for GGGCGGTA, -0.169.
In the case of AAACCAAC, the “PBM E-score” value is -0.0629.
The same measure for ATTATAGG: 0.184; for ATCGTATA: 0.115.
The same measure for AATTACAC: 0.0804.
For CAAGTGCA, the “PBM E-score” value was -0.208.
As for CAATAAGG, the “PBM E-score” value was -0.0974.
Regarding GCAATTAC, the “PBM E-score” value amounted to 0.114.
In the case of TAATCAAA, the “PBM E-score” value is 0.329.
For AAACCTAT, the “PBM E-score” value was -0.0458.
As for ATGGCGGC, the “PBM E-score” value was -0.0372.
On to ACTGACCA, for which the “PBM E-score” value is -0.174.
With CCTCTACG, the “PBM E-score” value is -0.288.
With GCAGATCA, the “PBM E-score” value was -0.116.
With ACCAGGAT, the “PBM E-score” value amounted to 0.128.
The same measure for CCTCCGGC: -0.19.
The same measure for CTATATGA: 0.102.
As to TCCTGACA, the “PBM E-score” value was 0.0835.
The result for ACACCAAT reads 0.239; that for ATTCCTAG, -0.00114.
As for ACGGCTTG, the “PBM E-score” value was -0.0627.
On to CGGTGTGC, for which the “PBM E-score” value is -0.31.
Consider ACTGTACA, for which the “PBM E-score” value is -0.112.
As to TAAAAAAA, the “PBM E-score” value came to 0.0163.
The same measure for GGTTGAGA: -0.0268; for TATCTGGA: -0.212; for ACTTCTAC: 0.0435.
Consider AGCGTGTC, for which the “PBM E-score” value was -0.223.
For CGCCGACA, the “PBM E-score” value was -0.0905.
The result for CACGCCGC reads -0.246; that for AAGGCAGG, -0.0771.
Regarding AACGTGAG, the “PBM E-score” value was -0.126.
The result for CAGCCAAC reads -0.0978; that for CTATATAA, 0.0999.
For AGCGGTAT, the “PBM E-score” value was 0.158.
Consider AATATTCT, for which the “PBM E-score” value amounted to 0.141.
With CAGAACTG, the “PBM E-score” value worked out at 0.142.
Take CGGACCCA: the “PBM E-score” value was -0.178.
For the sequence AGGTCAAT, the “PBM E-score” value was 0.13.
As for GTGCATCA, the “PBM E-score” value was 0.00241.
The result for AGAGCGTC reads -0.139.
On to GGCAGCTA, for which the “PBM E-score” value is 0.00359.
As for AAAGGCGA, the “PBM E-score” value was -0.17.
As for GGCGCTAC, the “PBM E-score” value was -0.319.
In the case of ACACGGTG, the “PBM E-score” value is -0.117.
CGGATCGA: the “PBM E-score” value was -0.0684.
Take CCAACCCA: the “PBM E-score” value was -0.122.
The same measure for ATTCAGGC: 0.0005; for CCACGGTC: -0.307; for ACGACCAT: -0.0488.

Values taken from the supplement of paper PMC3334620.
